The list shows only some results of the screen, not a fair sample: it is rich in T/C values a quarter to a half above the control, in often repeated tests (any T/C) and in doses without a T/C. Other doses and runs of a compound stand elsewhere. T/C: endpoint of the treated group in % of that of the vehicle group. Some entries give survivors of the animals treated and no T/C: the source holds a T/C of zero for them, seemingly a mark for toxic or unscored doses. Some doses without a T/C left all or most animals alive at the check, yet need not have been tolerated: the source hardly ever lists a survival T/C far under the control, and the zero likely stands for such cases as well. Counts of survivors are from the toxicity check (mostly the fifth day) where no day follows; animals may have died later. Schedules are NCI's codes, read here as Q, the interval in days (D) or hours (H), X, the number of doses. Where survival is the endpoint, the PubChem record calls one and a half times the control and up active, and a quarter to a half above the control has no call in these data; cut-offs in other NCI protocols can differ. Some T/C values carry the count of animals alive at the toxicity check (mostly the fifth day); without a count, all were alive then. Some entries were tested several times; the results are listed from low to high. Brackets with × say how often a value occurs here.
Tested on: CD2F1 mice, L1210 leukemia ip, survival T/C
Test: NCI In Vivo Anticancer Drug Screen. Data for tumor model L1210 Leukemia (intraperitoneal) in CD2F1 (CDF1) mice
Settings: higher T/C = longer survival
In short: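 Compound-dosed mice with transplantable tumor versus matched vehicle controls; endpoint ratio T/C reported.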

SMILES: O=NN(CCCl)C(=O)NCCCl
- T/C (T/C endpoint: mean survival time, dose: 37.5 mg/kg/injection, schedule: Q01DX001 (ip), vehicle: saline + alcohol): 369, 383, 437, 479 % of control
- T/C (T/C endpoint: mean survival time, dose: 40.0 mg/kg/injection, schedule: Q01DX001 (ip), vehicle: saline + alcohol, evaluated on day 5): 143 % of control
- T/C (T/C endpoint: mean survival time, dose: 40.0 mg/kg/injection, schedule: Q01DX001 (ip), vehicle: saline + alcohol, evaluated on day 6): 203 % of control
- T/C (T/C endpoint: mean survival time, dose: 40.0 mg/kg/injection, schedule: Q01DX001 (ip), vehicle: saline + alcohol, evaluated on day 8): 193 % of control
- T/C (T/C endpoint: mean survival time, dose: 40.0 mg/kg/injection, schedule: Q01DX001 (ip), vehicle: saline + alcohol, evaluated on day 30): 352 % of control
- T/C (T/C endpoint: mean survival time, dose: 40.0 mg/kg/injection, schedule: Q01DX001 (ip), vehicle: saline + alcohol, evaluated on day 45): 400 and 456 % of control
- T/C (T/C endpoint: mean survival time, dose: 40.0 mg/kg/injection, schedule: Q01DX001 (ip), vehicle: saline + alcohol, evaluated on day 60): 344 and 857 % of control
- T/C (T/C endpoint: mean survival time, dose: 40.0 mg/kg/injection, schedule: Q01DX001 (ip), vehicle: saline, evaluated on day 5): 305, 310, 343 % of control
- T/C (T/C endpoint: mean survival time, dose: 40.0 mg/kg/injection, schedule: Q01DX001 (ip), vehicle: saline, evaluated on day 30): 218 [5 of 6 alive], 296, 301 % of control
- T/C (T/C endpoint: mean survival time, dose: 40.0 mg/kg/injection, schedule: Q01DX001 (ip), vehicle: saline, evaluated on day 60): 340 % of control
- T/C (T/C endpoint: mean survival time, dose: 48.0 mg/kg/injection, schedule: Q01DX001 (ip), vehicle: saline + alcohol, evaluated on day 5): 121, 305, 309, 479 % of control
- T/C (T/C endpoint: mean survival time, dose: 48.0 mg/kg/injection, schedule: Q01DX001 (ip), vehicle: saline + alcohol, evaluated on day 6): 206 % of control
- T/C (T/C endpoint: mean survival time, dose: 60.0 mg/kg/injection, schedule: Q01DX001 (ip), vehicle: Klucel (hydroxypropylcellulose) (HPC)): 146 % of control
- T/C (T/C endpoint: mean survival time, dose: 60.0 mg/kg/injection, schedule: Q01DX001 (ip), vehicle: saline + alcohol, evaluated on day 30): 121 and 240 % of control
- T/C (T/C endpoint: mean survival time, dose: 60.0 mg/kg/injection, schedule: Q01DX001 (ip), vehicle: saline + alcohol, evaluated on day 40): 145 and 408 % of control
- T/C (T/C endpoint: mean survival time, dose: 64.0 mg/kg/injection, schedule: Q01DX001 (ip), vehicle: saline + alcohol, evaluated on day 5): 236 % of control
- T/C (T/C endpoint: mean survival time, dose: 64.0 mg/kg/injection, schedule: Q01DX001 (ip), vehicle: saline + alcohol, evaluated on day 30): 250 and 279 % of control
- T/C (T/C endpoint: mean survival time, dose: 64.0 mg/kg/injection, schedule: Q01DX001 (ip), vehicle: saline + alcohol, evaluated on day 45): 222 % of control [5 of 6 alive]
- survivor count (T/C endpoint: mean survival time, dose: 120.0 mg/kg/injection, schedule: Q01DX001 (ip), vehicle: saline + alcohol): 2 of 6
- survivor count (T/C endpoint: mean survival time, dose: 128.0 mg/kg/injection, schedule: Q01DX001 (ip), vehicle: saline + alcohol): 4 of 6
- T/C (T/C endpoint: median survival time, dose: 0.88 mg/kg/injection, schedule: Q01DX009 (ip), vehicle: saline + alcohol): 125 % of control
- T/C (T/C endpoint: median survival time, dose: 1.5 mg/kg/injection, schedule: Q01DX009 (ip), vehicle: saline + alcohol): 148 % of control
- T/C (T/C endpoint: median survival time, dose: 1.8 mg/kg/injection, schedule: Q01DX009 (ip), vehicle: saline + alcohol): 128 % of control
- T/C (T/C endpoint: median survival time, dose: 5.0 mg/kg/injection, schedule: Q01DX001 (ip), vehicle: Klucel (hydroxypropylcellulose) (HPC)): 138 % of control
- T/C (T/C endpoint: median survival time, dose: 7.5 mg/kg/injection, schedule: Q01DX005 (ip), vehicle: saline + alcohol, evaluated on day 30): 231, 237, 246, 370 % of control (2×)
- T/C (T/C endpoint: median survival time, dose: 7.5 mg/kg/injection, schedule: Q01DX005 (ip), vehicle: saline + alcohol, evaluated on day 35): 207 % of control
- T/C (T/C endpoint: median survival time, dose: 7.5 mg/kg/injection, schedule: Q01DX005 (ip), vehicle: saline + alcohol, evaluated on day 60): 204 and 226 % of control
- T/C (T/C endpoint: median survival time, dose: 7.5 mg/kg/injection, schedule: Q01DX009 (ip), vehicle: saline + alcohol, evaluated on day 30): 250, 268, 275, 370, 375 % of control
- T/C (T/C endpoint: median survival time, dose: 7.5 mg/kg/injection, schedule: Q01DX009 (ip), vehicle: saline + alcohol, evaluated on day 35): 262 % of control
- T/C (T/C endpoint: median survival time, dose: 7.5 mg/kg/injection, schedule: Q01DX009 (ip), vehicle: saline + alcohol, evaluated on day 60): 292 and 361 % of control
- T/C (T/C endpoint: median survival time, dose: 10.0 mg/kg/injection, schedule: Q01DX001 (ip), vehicle: saline): 142 % of control
- T/C (T/C endpoint: median survival time, dose: 10.0 mg/kg/injection, schedule: Q01DX005 (ip), vehicle: saline + alcohol): 178, 197, 215, 228, 250, 255, 283, 287, 312, 322, 333 (2×), 337, 340, 352, 357, 361 (2×), 370 % of control (3×)
- T/C (T/C endpoint: median survival time, dose: 10.0 mg/kg/injection, schedule: Q01DX009 (ip), vehicle: saline + alcohol): 87, 171, 190, 235, 237, 238, 247, 322, 333, 340, 348, 357, 361 (2×), 361 [5 of 6 alive], 370 (5×), 375 % of control
- T/C (T/C endpoint: median survival time, dose: 15.0 mg/kg/injection, schedule: Q01DX005 (ip), vehicle: saline + alcohol, evaluated on day 30): 121, 151, 225, 312, 322, 333 (2×), 337, 340, 348, 352, 357, 361 (3×), 365, 370 (7×), 375 % of control (3×)

Reference: PubChem BioAssay AID256 (DTP/NCI, 2004)
